Assay results taken from patent publication US20150174057A1, “COMPOSITIONS AND METHODS FOR THE PREVENTION AND TREATMENT OF ORAL DISEASES” (priority 2013, published 2015).
Some results were stated once for a whole list of compounds, not compound by compound. Some ranges recur; such a range may be that of the whole group of compounds.

Test system: oral bacteria obtained from a human subject with oral inflammation
Assay: Growth of oral bacteria from a subject with oral inflammation in liquid culture
Format: cell-based
Conditions: preservatives at the national recommended concentrations, 18 hours culture at 37° C.

Molecule | growth inhibiting effect
[H]/N=C(\N/C(=N/[H])NCCCCCCNC(=N)NC(=N)Nc1ccc(Cl)cc1)Nc1ccc(Cl)cc1 [chlorhexidine] | 15-35%
parabens | 15-35%
